# Values from PubChem BioAssay AID1259308 (NCATS, 2017)
# Purpose: 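Candidate targets for better recombinant protein yield in mammalian cells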 (primary screen)
# System: human HEK293 embryonic kidney cells stably expressing firefly luciferase (HEK-CMV-Luc2-Hygro)
# Reagent: single siRNA against human genes, 0.8 pmol siRNA per well
# Time to read-out: 72 h
# Detection: 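Luciferase light (ONE-Glo) measured on one replicate plate set and viability (CellTiter-Glo) on the other, scaled to a negative control siRNA, with robust z-scores and luciferase per cell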
# Reading the numbers: total luciferase, z-score and total luciferase, % of control: higher = more reporter protein produced; luciferase per cell, z-score: higher = more reporter output per viable cell; viable cells, % of control: higher = more viable cells
# Call rule: 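Active when the median/MAD z-score for overall luciferase is greater than 3; a gene was taken forward for validation with new siRNAs if at least two of its three siRNAs passed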
# Meaning of the calls: active = raised luciferase; inactive = no rise
# Shown is an unselected part of about 59,000 reagents. Over the whole deposit, about 1,510 (2.6%) got an active call. 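Calls use total luciferase alone and ignore viability, so some active siRNAs may act by altering cell number.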 The numbers tell different reagents against one gene apart.
Gene,reagent,"total luciferase, z-score","total luciferase, % of control","luciferase per cell, z-score","viable cells, % of control",call
AKR1E2,1,0.102,83.9,0.366,85.2,inactive
AKR1E2,2,1.41,110,1.46,83.5,inactive
AKR1E2,3,0.934,100,-0.0354,113,inactive
PALS1,1,0.258,87,2.1,56,inactive
PALS1,2,0.918,100,0.786,91,inactive
PALS1,3,-2.7,28.1,-3.44,77.8,inactive
NLRP7,1,-2.37,34.7,-2.73,79.6,inactive
NLRP7,2,1.02,102,0.994,87.9,inactive
NLRP7,3,-0.521,71.5,-0.565,92.8,inactive
SPTLC2,1,0.231,86.5,-0.183,101,inactive
SPTLC2,2,-1.2,57.9,-1.15,87.7,inactive
SPTLC2,3,-0.401,73.9,-0.886,104,inactive
E4F1,1,0.0095,82.1,-0.37,101,inactive
E4F1,2,0.402,89.9,-0.011,101,inactive
E4F1,3,-0.69,68.2,0.123,73.7,inactive
FAP,1,-1.19,58.1,-1.4,94,inactive
FAP,2,0.83,98.4,0.247,103,inactive
FAP,3,0.38,89.5,-0.043,101,inactive
CYRIB,1,2.34,128,1.01,110,inactive
CYRIB,2,1.63,114,1.49,86.3,inactive
CYRIB,3,-1.45,53.1,-0.988,76.9,inactive
PTTG1IP,1,-2.16,39,-1.97,73,inactive
PTTG1IP,2,-0.509,71.8,-0.466,90.7,inactive
PTTG1IP,3,-0.259,76.7,-0.13,88.7,inactive
KATNB1,1,-1.13,59.5,-0.689,79.7,inactive
KATNB1,2,2.42,130,2.22,80.9,inactive
KATNB1,3,1.36,109,1.76,76.6,inactive
WASHC2FP,1,0.492,91.7,-0.105,105,inactive
WASHC2FP,2,1.18,105,1.74,74.3,inactive
WASHC2FP,3,3.63,154,2.22,96.1,active

Single entries from above:
Under “call”, AKR1E2 #1 shows inactive
Entry for NLRP7 #3 in “viable cells, % of control”: 92.8
For “viable cells, % of control”, AKR1E2 #2 shows 83.5
Result of SPTLC2 #2 in “call”: inactive

Next results follow:
Gene,reagent,"total luciferase, z-score","total luciferase, % of control","luciferase per cell, z-score","viable cells, % of control",call
CCL15,1,2.87,139,2.45,81.5,inactive
CCL15,2,-0.287,76.2,-0.19,89.5,inactive
CCL15,3,-0.452,72.9,-1.25,113,inactive
GSDME,1,-0.549,71,0.455,70.3,inactive
GSDME,2,0.0605,83.1,-0.109,95.6,inactive
GSDME,3,-0.407,73.8,-0.576,96,inactive
ZNF107,1,0.359,89,0.714,82.4,inactive
ZNF107,2,-1.26,56.9,-0.658,75.6,inactive
ZNF107,3,0.695,95.7,0.258,99.9,inactive
ZNF764,1,0.225,86.4,0.521,84.1,inactive
ZNF764,2,-0.0241,81.4,-0.302,98.5,inactive
ZNF764,3,-1.11,59.8,-1.25,92.7,inactive
OR8G1,1,-1.37,54.6,-1.72,95.9,inactive
OR8G1,2,-0.333,75.3,-0.653,99.9,inactive
OR8G1,3,0.308,88,-0.0223,98.9,inactive
PWP2,1,0.394,89.7,1.25,72.1,inactive
PWP2,2,0.72,96.2,0.8,87.1,inactive
PWP2,3,-1.27,56.7,-1.52,94.5,inactive
EDC3,1,-0.476,72.4,-0.152,84.2,inactive
EDC3,2,-1.84,45.3,-1.25,70.3,inactive
EDC3,3,-0.154,78.8,0.324,80.9,inactive
KAT6A,1,0.386,89.6,0.345,91.4,inactive
KAT6A,2,-2.57,30.8,-3.19,79.8,inactive
KAT6A,3,-0.706,67.8,-1.43,111,inactive
MIDN,1,-0.806,65.9,-0.732,89.3,inactive
MIDN,2,0.245,86.8,1.26,69.6,inactive
MIDN,3,0.192,85.7,-0.278,103,inactive
